Assay results from article PMC9691929.
These are yes or no findings as the source states them, for the method shown. In cells and extracts the contact can be indirect. These calls come from enrichment with a bait or labelling near it, and not all partners need be listed. For some of these results: Sequences can lack the tags named with a protein.

The chains behind the UniProt entries cited, without tags or fusion partners. Where a name states a change or a piece, a line headed by the entry shows the natural chain unless it says otherwise.
UniProt Q8NHS0: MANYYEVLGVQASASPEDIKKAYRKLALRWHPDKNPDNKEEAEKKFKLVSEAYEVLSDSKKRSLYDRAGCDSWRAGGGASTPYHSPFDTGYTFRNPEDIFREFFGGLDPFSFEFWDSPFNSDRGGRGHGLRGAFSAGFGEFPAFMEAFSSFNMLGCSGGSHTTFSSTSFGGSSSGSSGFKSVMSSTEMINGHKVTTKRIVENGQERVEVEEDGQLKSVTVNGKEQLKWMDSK
UniProt P35579: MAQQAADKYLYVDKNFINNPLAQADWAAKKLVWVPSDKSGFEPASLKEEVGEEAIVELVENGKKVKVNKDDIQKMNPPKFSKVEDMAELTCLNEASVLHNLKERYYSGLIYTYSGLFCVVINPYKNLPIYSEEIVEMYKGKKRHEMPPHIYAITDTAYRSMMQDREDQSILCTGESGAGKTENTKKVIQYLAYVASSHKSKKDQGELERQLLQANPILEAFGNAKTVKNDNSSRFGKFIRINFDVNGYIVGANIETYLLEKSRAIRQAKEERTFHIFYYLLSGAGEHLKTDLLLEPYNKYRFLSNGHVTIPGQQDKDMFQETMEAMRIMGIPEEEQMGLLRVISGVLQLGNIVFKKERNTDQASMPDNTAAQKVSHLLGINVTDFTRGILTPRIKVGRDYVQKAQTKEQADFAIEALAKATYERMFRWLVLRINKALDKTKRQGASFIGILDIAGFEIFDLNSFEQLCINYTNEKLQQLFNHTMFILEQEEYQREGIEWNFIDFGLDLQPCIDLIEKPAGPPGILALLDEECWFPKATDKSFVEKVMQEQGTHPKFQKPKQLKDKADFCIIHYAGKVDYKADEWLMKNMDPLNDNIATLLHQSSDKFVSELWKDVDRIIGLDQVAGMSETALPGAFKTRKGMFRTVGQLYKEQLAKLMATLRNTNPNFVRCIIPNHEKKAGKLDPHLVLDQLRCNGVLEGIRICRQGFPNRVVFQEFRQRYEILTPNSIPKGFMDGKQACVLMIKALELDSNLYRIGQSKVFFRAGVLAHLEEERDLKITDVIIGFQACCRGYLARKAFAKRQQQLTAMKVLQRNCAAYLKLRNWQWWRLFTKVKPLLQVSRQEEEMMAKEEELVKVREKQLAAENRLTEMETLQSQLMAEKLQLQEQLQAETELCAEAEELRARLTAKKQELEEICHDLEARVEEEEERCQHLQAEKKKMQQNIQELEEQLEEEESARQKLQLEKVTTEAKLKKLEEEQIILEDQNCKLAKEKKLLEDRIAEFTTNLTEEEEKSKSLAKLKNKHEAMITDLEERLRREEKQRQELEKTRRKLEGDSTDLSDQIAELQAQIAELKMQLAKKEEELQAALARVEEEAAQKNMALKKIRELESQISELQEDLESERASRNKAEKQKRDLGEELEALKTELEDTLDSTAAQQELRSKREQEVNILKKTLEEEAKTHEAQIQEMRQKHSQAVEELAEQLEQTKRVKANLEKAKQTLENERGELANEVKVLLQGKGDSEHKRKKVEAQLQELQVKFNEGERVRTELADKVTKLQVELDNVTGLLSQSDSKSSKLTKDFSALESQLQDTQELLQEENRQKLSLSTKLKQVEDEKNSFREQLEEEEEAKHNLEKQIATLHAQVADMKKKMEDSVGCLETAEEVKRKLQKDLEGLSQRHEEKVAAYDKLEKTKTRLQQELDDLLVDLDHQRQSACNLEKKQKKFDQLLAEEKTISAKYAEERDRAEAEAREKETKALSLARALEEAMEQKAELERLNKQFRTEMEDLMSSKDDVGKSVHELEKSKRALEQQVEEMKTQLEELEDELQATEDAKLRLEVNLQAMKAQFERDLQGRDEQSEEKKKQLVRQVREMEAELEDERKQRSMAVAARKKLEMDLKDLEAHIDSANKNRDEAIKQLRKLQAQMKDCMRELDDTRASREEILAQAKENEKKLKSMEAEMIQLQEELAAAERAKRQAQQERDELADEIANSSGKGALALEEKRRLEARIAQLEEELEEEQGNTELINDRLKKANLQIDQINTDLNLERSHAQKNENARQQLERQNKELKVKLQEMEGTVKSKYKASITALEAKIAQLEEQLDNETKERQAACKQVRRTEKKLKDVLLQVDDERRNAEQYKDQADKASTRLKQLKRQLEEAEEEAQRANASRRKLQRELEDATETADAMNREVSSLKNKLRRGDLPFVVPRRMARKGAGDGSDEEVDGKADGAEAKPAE
UniProt P60660: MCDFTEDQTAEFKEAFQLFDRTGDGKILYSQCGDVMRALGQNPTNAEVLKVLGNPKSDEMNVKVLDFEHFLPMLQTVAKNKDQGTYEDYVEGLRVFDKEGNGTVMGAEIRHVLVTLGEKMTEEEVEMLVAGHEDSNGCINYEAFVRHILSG

T1: Hspa13 with a C-terminal Flag (human), P48723
T1 chain: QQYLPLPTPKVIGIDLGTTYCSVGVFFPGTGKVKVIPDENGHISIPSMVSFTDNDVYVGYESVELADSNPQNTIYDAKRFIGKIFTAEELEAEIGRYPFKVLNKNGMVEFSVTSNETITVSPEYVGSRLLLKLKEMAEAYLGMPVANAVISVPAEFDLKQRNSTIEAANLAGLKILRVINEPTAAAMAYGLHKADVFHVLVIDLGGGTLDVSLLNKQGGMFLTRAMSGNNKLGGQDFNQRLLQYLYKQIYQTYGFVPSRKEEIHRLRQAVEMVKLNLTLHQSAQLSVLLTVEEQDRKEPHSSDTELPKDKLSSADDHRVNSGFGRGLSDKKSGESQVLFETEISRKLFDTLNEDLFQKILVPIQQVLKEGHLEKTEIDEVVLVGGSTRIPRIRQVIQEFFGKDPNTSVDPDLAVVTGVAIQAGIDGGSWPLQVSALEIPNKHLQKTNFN

T2: Hspa13 with a C-terminal Flag (human) (UniProt P48723)
T2 sequence: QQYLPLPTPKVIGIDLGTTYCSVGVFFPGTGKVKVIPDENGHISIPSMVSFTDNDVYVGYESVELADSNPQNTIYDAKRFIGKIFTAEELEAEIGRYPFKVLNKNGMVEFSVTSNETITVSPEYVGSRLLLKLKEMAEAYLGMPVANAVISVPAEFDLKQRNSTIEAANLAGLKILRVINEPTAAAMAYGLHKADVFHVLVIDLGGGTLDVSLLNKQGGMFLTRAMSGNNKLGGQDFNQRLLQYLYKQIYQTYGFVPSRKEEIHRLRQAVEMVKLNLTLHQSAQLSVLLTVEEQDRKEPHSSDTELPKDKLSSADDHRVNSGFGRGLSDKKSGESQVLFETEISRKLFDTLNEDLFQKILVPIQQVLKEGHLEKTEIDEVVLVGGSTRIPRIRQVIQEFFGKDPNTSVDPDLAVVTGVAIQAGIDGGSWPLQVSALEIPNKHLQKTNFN


What was measured:
Flag-tagged DNAJB8 H31Q = Flag-tagged DNAJB8 H31Q (UniProt Q8NHS0); assay: affinity purification with mass spectrometry; Hsp40 affinity profiling: ^FlagDNAJB8^H31Q overexpressed in HEK293T and HSPA13-/- (12F4) cells, 1 uM Tg for 3 h, RIPA lysis, M2 anti-Flag Dynabeads overnight at 4 C, four RIPA washes, TMT-LC-MS; recovery compared between the two cell lines
[1] = biological target: T1, Hspa13 with a C-terminal Flag (human), …; assay: affinity purification with mass spectrometry; HEK293T overexpressing Hspa13^Flag or mock (eGFP), crosslinked in cells with 1 mM DSP for 30 min, quenched, lysed; M2 anti-Flag Dynabeads; stringent RIPA washes; TMT, MuDPIT; 5% FDR; conditions: remark: other sources report otherwise
[2] = biological target: T2, Hspa13 with a C-terminal Flag (human); assay: as above

| Molecule | binding [2] | further results |
| --- | --- | --- |
| MYH9 (from UniProt P35579 1-1960) | – | binding (Flag-tagged DNAJB8 H31Q): binds |
| MYL6 (from UniProt P60660 1-151) | – | binding (Flag-tagged DNAJB8 H31Q): binds |
| HYOU1, Q9Y4L1 33-999 (protein) LAVMSVDLGSESMKVAIVKPGVPMEIVLNKESRRKTPVIVTLKENERFFGDSAASMAIKNPKATLRYFQHLLGKQADNPHVALYQARFPEHELTFDPQRQTVHFQISSQLQFSPEEVLGMVLNYSRSLAEDFAEQPIKDAVITVPVFFNQAERRAVLQAARMAGLKVLQLINDNTATALSYGVFRRKDINTTAQNIMFYDMGSGSTVCTIVTYQMVKTKEAGMQPQLQIRGVGFDRTLGGLEMELRLRERLAGLFNEQRKGQRAKDVRENPRAMAKLLREANRLKTVLSANADHMAQIEGLMDDVDFKAKVTRVEFEELCADLFERVPGPVQQALQSAEMSLDEIEQVILVGGATRVPRVQEVLLKAVGKEELGKNINADEAAAMGAVYQAAALSKAFKVKPFVVRDAVVYPILVEFTREVEEEPGIHSLKHNKRVLFSRMGPYPQRKVITFNRYSHDFNFHINYGDLGFLGPEDLRVFGSQNLTTVKLKGVGDSFKKYPDYESKGIKAHFNLDESGVLSLDRVESVFETLVEDSAEEESTLTKLGNTISSLFGGGTTPDAKENGTDTVQEEEESPAEGSKDEPGEQVELKEEAEAPVEDGSQPPPPEPKGDATPEGEKATEKENGDKSEAQKPSEKAEAGPEGVAPAPEGEKKQKPARKRRMVEEIGVELVVLDLPDLPEDKLAQSVQKLQDLTLRDLEKQEREKAANSLEAFIFETQDKLYQPEYQEVSTEEQREEISGKLSAASTWLEDEGVGATTVMLKEKLAELRKLCQGLFFRVEERKKWPERLSALDNLLNHSSMFLKGARLIPEMDQIFTEVEMTTLEKVINETWAWKNATLAEQAKLPATEKPVLLSKDIEAKMMALDREVQYLLNKAKFTKPRPRPKDKNGTRAEPPLNASASDQGEKVIPPAGQTEDAEPISEPEKVETGSEPGDTEPLELGGPGAEPEQKEQSTGQKRPLKNDEL | – | binding [1]: binds |
| PDIA4 (protein, UniProt P13667 21-645) VAGAEGPDEDSSNRENAIEDEEEEEEEDDDEEEDDLEVKEENGVLVLNDANFDNFVADKDTVLLEFYAPWCGHCKQFAPEYEKIANILKDKDPPIPVAKIDATSASVLASRFDVSGYPTIKILKKGQAVDYEGSRTQEEIVAKVREVSQPDWTPPPEVTLVLTKENFDEVVNDADIILVEFYAPWCGHCKKLAPEYEKAAKELSKRSPPIPLAKVDATAETDLAKRFDVSGYPTLKIFRKGRPYDYNGPREKYGIVDYMIEQSGPPSKEILTLKQVQEFLKDGDDVIIIGVFKGESDPAYQQYQDAANNLREDYKFHHTFSTEIAKFLKVSQGQLVVMQPEKFQSKYEPRSHMMDVQGSTQDSAIKDFVLKYALPLVGHRKVSNDAKRYTRRPLVVVYYSVDFSFDYRAATQFWRSKVLEVAKDFPEYTFAIADEEDYAGEVKDLGLSESGEDVNAAILDESGKKFAMEPEEFDSDTLREFVTAFKKGKLKPVIKSQPVPKNNKGPVKVVVGKTFDSIVMDPKKDVLIEFYAPWCGHCKQLEPVYNSLAKKYKGQKGLVIAKMDATANDVPSDRYKVEGFPTIYFAPSGDKKNPVKFEGGDRDLEHLSKFIEEHATKLSRTKEEL | binds | – |

Continued, in another order:

| binding [2] | Molecule | further results |
| --- | --- | --- |
| binds | SRPRB (protein, UniProt Q9Y5M8 1-271) MASADSRRVADGGGAGGTFQPYLDTLRQELQQTDPTLLSVVVAVLAVLLTLVFWKLIRSRRSSQRAVLLVGLCDSGKTLLFVRLLTGLYRDTQTSITDSCAVYRVNNNRGNSLTLIDLPGHESLRLQFLERFKSSARAIVFVVDSAAFQREVKDVAEFLYQVLIDSMGLKNTPSFLIACNKQDIAMAKSAKLIQQQLEKELNTLRVTRSAAPSTLDSSSTAPAQLGKKGKEFEFSQLPLKVEFLECSAKGGRGDVGSADIQDLEKWLAKIA | – |
| binds | ZMPSTE24 (protein, UniProt O75844 1-475) MGMWASLDALWEMPAEKRIFGAVLLFSWTVYLWETFLAQRQRRIYKTTTHVPPELGQIMDSETFEKSRLYQLDKSTFSFWSGLYSETEGTLILLFGGIPYLWRLSGRFCGYAGFGPEYEITQSLVFLLLATLFSALTGLPWSLYNTFVIEEKHGFNQQTLGFFMKDAIKKFVVTQCILLPVSSLLLYIIKIGGDYFFIYAWLFTLVVSLVLVTIYADYIAPLFDKFTPLPEGKLKEEIEVMAKSIDFPLTKVYVVEGSKRSSHSNAYFYGFFKNKRIVLFDTLLEEYSVLNKDIQEDSGMEPRNEEEGNSEEIKAKVKNKKQGCKNEEVLAVLGHELGHWKLGHTVKNIIISQMNSFLCFFLFAVLIGRKELFAAFGFYDSQPTLIGLLIIFQFIFSPYNEVLSFCLTVLSRRFEFQADAFAKKLGKAKDLYSALIKLNKDNLGFPVSDWLFSMWHYSHPPLLERLQALKTMKQH | – |
| binds | SEC11C (protein, UniProt Q9BY50 1-192) MVRAGAVGAHLPASGLDIFGDLKKMNKRQLYYQVLNFAMIVSSALMIWKGLIVLTGSESPIVVVLSGSMEPAFHRGDLLFLTNFREDPIRAGEIVVFKVEGRDIPIVHRVIKVHEKDNGDIKFLTKGDNNEVDDRGLYKEGQNWLEKKDVVGRARGFLPYVGMVTIIMNDYPKFKYALLAVMGAYVLLKRES | – |
